According to the supplement of paper PMC10338343:
± gives the standard deviation. Only a part is listed here, and it is no random draw. Many of these values have a large error.

Test system: MIWI (PIWIL1) piRISC loaded with piRNA #1 (30 nt)
Experiment: pre-steady-state target cleavage rate (min^-1); MIWI and MILI are mouse PIWI proteins and EfPiwi is from a freshwater sponge; tags in brackets are library labels; higher = faster piRNA-guided slicing of the target
Conditions: guide: piRNA #1 5'p-UGAGGUAGUAGGUUGUAUAGUAUCCAGAGG; auxiliary factor: 500 nM mouse GTSF1
Method in brief: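 The pre-steady-state cleavage rate came from a burst-and-steady-state fit to pooled data from three Cleave-'n-Seq trials, in which uncleaved targets were sequenced and normalised to depth and to weakly complementary targets. Each reaction held 0.1 nM transcribed, DNA-blocked target RNA library and 1 nM active affinity-purified piRISC carrying one synthetic guide, with or without 500 nM GTSF1 partner protein, in HEPES–potassium acetate buffer at 33 °C for 0–8 or 0–960 min. k3 was capped at 0.0001 min^-1.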

| Sequence | pre-steady-state target cleavage rate |
| --- | --- |
| GCUCUGGAUACUAUACAACCUACAUGCUCA | 0.589 ± 0.072 |
| GGAGACCUAUGUAUUCAACCUACUACCUGA | 0.000294 ± 0.0061 |
| GGACUGGAUACUAUACAAGCCUACUACCUCA | 0.000441 ± 0.018 |
| GGAGACCUAUGAUAUGUUCGUACUACCUCA | 0.000124 ± 0.013 |
| CGUCUGGAUACUAUACAACCUACUACCUGA | 0.517 ± 0.044 |
| CCACUGGUUACUAUACAACCUACUACCUCA | 2.28 ± 0.14 |
| GCUCUGGAUACUAUAUAACCUACUACCUCA | 1.79 ± 0.1 |
| GGUCUGGAUACUAUACUAACCUACUACCUCA | 0.000886 ± 0.0065 |
| GGAGACCUAUGAUAUGUUCCUACUACCUGCA | 0.000103 ± 0.032 |
| GGACUGGAUACUAUACAUACCUACUACCUCA | 0.000115 ± 0.049 |
| GGAGACCUAUCUUUACAACCAACUACCUCA | 0.00171 ± 0.0049 |
| CCUCUGGAUCCUAUACAACCUACUACCUCA | 1.38 ± 0.14 |
| GGAGACCUAUGAAUACAACCUACUACCUAA | 0.000975 ± 0.0073 |
| CCUCUGGAUACUAUACAACCCUACUACCUCA | 0.00658 ± 0.0036 |
| GGUCUGGAUACUAUACAACCUACUAGCUGA | 0.000554 ± 0.0069 |
| GCUCUGGAUACUAUACAGACCUACUACCUCA | 0.00291 ± 0.0046 |
| GGAGACCUAUCUAUACUACCAACUACCUCA | 0.00109 ± 0.0053 |
| GGAGACCUAUGUAUACAACCUACUUCCACA | 0.000724 ± 0.0041 |
| GGUCAGGAUUCUAUACAACCUACUACCUCA | 1.77 ± 0.12 |
| GGAGACCUAUGUAUUCAACCUACUACCACA | 0.000402 ± 0.0081 |

Looked up one by one from above (3):

| Sequence | pre-steady-state target cleavage rate |
| --- | --- |
| CCUCUGGAUACUAUACAACCCUACUACCUCA | 0.00658 ± 0.0036 |
| GGAGACCUAUGUAUACAACCUACUUCCACA | 0.000724 ± 0.0041 |
| GGUCUGGAUACUAUACAACCUACUAGCUGA | 0.000554 ± 0.0069 |

Further results follow.

| Sequence | pre-steady-state target cleavage rate |
| --- | --- |
| GCUCUGGAUACCUAUACAACCUACUACCUCA | 1.06 ± 0.08 |
| CCUCUGGAUACUAUACAACGAUGAUGGAGA [g12:g30:cont:t1A] | 0.00319 ± 0.0042 |
| GGUCUGGAUACUUAUCAACCUACUACCUCA | 0.863 ± 0.11 |
| GGAGACCUAUGUAUACAACCUACAACCACA | 0.00243 ± 0.0026 |
| GCUCUGGAUACUAUACAACCUCUACCUCA | 0.00616 ± 0.003 |
| GGAGUGGAUACUAUACAACCUACUCACCUCA | 0.793 ± 0.088 |
| CCUCUGGAUACUAUACAACCUACUACCUCA [g2:g30:cont:t1A] | 1.96 ± 0.12 |
| GGUCUGGAUACUAUACAUACCUACUACCUCA | 0.000515 ± 0.014 |
| GGAGAGGAUACUAUACAACCCUACUACCUCA | 0.000778 ± 0.0071 |
| GCUCUGGAUACUAUACAUGGAUGAUGGAGA [g14:g29:cont:t1A] | 0.000257 ± 0.025 |
| CCUCUGCUUACUAUACAACCUACUACCUCA | 2.19 ± 0.15 |
| GCUCAGGAUACUUUACAACCUACUACCUCA | 1.81 ± 0.11 |
| GGAGACCUAACUAUAGUUCCUACUACCUCA | 0.000299 ± 0.013 |
| GGAGACCUAUGUAUACUACCUUCUACCUCA | 0.00089 ± 0.0034 |
| CCUCUUGAUACUAUACAACCUACUACCUCA | 2.33 ± 0.14 |
| GGAGACCUAUGAUAUGUUGCUACUCCCUCA | 0.00033 ± 0.01 |
| GGAGACCUUACUAUACAACGAACUACCUCA | 0.00122 ± 0.0025 |
| GCUCUGGAUACGAUACAACCUACUACCUCA | 1.7 ± 0.086 |
| GGAGACCUAUGAAUGCAACCUACUACCUCA | 0.000803 ± 0.0049 |
| GGAGACCUAACUAUACAACCUACUUGGUCA | 0.00154 ± 0.0084 |
